Measured values from the supplement of paper PMC8728848.
Some of the results follow.

Experiments:
Assay in all cases: glycan array binding signal (z-score within array); higher = stronger binding
Conditions in all cases: glycan notation: IUPAC condensed, linker removed
[1] = target: Gal(a1-3)[Gal(a1-4)]Gal(b1-4)GlcNAc
Summary of the method: (§1)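 From the Consortium for Functional Glycomics database, 3228 arrays were curated, keeping only those whose protein sequence was available. Binding is given as a within-array Z-score averaged across arrays sharing a protein sequence and across linkers. Negative Z-scores can be read as non-binding.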

[2] = target: Gal(a1-4)Gal(b1-3)GlcNAc(b1-2)Man(a1-3)[Gal(a1-4)Gal(b1-3)GlcNAc(b1-2)Man(a1-6)]Man(b1-4)GlcNAc(b1-4)GlcNAc
Summary of the method: as §1

Gal(a1-4)Gal(b1-4)Glc = target: Gal(a1-4)Gal(b1-4)Glc
Summary of the method: as §1

Gal(a1-4)Gal(b1-4)GlcNAc = target: Gal(a1-4)Gal(b1-4)GlcNAc
Summary of the method: as §1

[3] = target: Gal(a1-4)Gal(b1-4)GlcNAc(b1-2)Man(a1-3)[Gal(a1-4)Gal(b1-4)GlcNAc(b1-2)Man(a1-6)]Man(b1-4)GlcNAc(b1-4)GlcNAc
Summary of the method: as §1

[4] = target: Gal(a1-4)Gal(b1-4)GlcNAc(b1-3)Gal(b1-4)Glc
Summary of the method: as §1

Gal(a1-4)GlcNAc = target: Gal(a1-4)GlcNAc
Summary of the method: as §1

Gal(a1-6)Glc = target: Gal(a1-6)Glc
Summary of the method: as §1

Gal(b1-2)Gal = target: Gal(b1-2)Gal
Summary of the method: as §1

Gal(b1-3)Gal = target: Gal(b1-3)Gal
Summary of the method: as §1

Gal(b1-3)Gal(b1-4)GlcNAc = target: Gal(b1-3)Gal(b1-4)GlcNAc
Summary of the method: as §1

Gal(b1-3)GalNAc = target: Gal(b1-3)GalNAc
Summary of the method: as §1

[5] = target: Gal(b1-3)GalNAc(a1-3)[Fuc(a1-2)]Gal(b1-4)Glc
Summary of the method: as §1

[6] = target: Gal(b1-3)GalNAc(a1-3)[Fuc(a1-2)]Gal(b1-4)GlcNAc
Summary of the method: as §1

Gal(b1-3)GalNAc(b1-3)Gal = target: Gal(b1-3)GalNAc(b1-3)Gal
Summary of the method: as §1

[7] = target: Gal(b1-3)GalNAc(b1-3)Gal(a1-4)Gal(b1-4)Glc
Summary of the method: as §1

[8] = target: Gal(b1-3)GalNAc(b1-4)Gal(b1-4)Glc
Summary of the method: as §1

[9] = target: Gal(b1-3)GalNAc(b1-4)[Neu5Ac(a2-3)]Gal(b1-4)Glc
Summary of the method: as §1

Gal(b1-3)GlcNAc = target: Gal(b1-3)GlcNAc
Summary of the method: as §1

[10] = target: Gal(b1-3)GlcNAc(a1-3)Gal(b1-4)GlcNAc
Summary of the method: as §1

[11] = target: Gal(b1-3)GlcNAc(a1-6)Gal(b1-4)GlcNAc
Summary of the method: as §1

Gal(b1-3)GlcNAc(b1-2)Man = target: Gal(b1-3)GlcNAc(b1-2)Man
Summary of the method: as §1

[12] = target: Gal(b1-3)GlcNAc(b1-2)Man(a1-3)[Gal(b1-3)GlcNAc(b1-2)Man(a1-6)]Man(b1-4)GlcNAc(b1-4)GlcNAc
Summary of the method: as §1

[13] = target: Gal(b1-3)GlcNAc(b1-2)Man(a1-3)[Gal(b1-3)GlcNAc(b1-2)Man(a1-6)]Man(b1-4)GlcNAc(b1-4)[Fuc(a1-6)]GlcNAc
Summary of the method: as §1

[14] = target: Gal(b1-3)GlcNAc(b1-2)Man(a1-3)[GlcNAc(b1-4)][Gal(b1-3)GlcNAc(b1-2)Man(a1-6)]Man(b1-4)GlcNAc(b1-4)GlcNAc
Summary of the method: as §1

[15] = target: Gal(b1-3)GlcNAc(b1-2)[Gal(b1-3)GlcNAc(b1-6)]Man(a1-6)[Gal(b1-3)GlcNAc(b1-2)Man(a1-3)]Man(b1-4)GlcNAc(b1-4)GlcNAc
Summary of the method: as §1

[16] = target: Gal(b1-3)GlcNAc(b1-3)Gal(b1-3)GlcNAc
Summary of the method: as §1

[17] = target: Gal(b1-3)GlcNAc(b1-3)Gal(b1-4)Glc
Summary of the method: as §1

[18] = target: Gal(b1-3)GlcNAc(b1-3)Gal(b1-4)GlcNAc
Summary of the method: as §1

[19] = target: Gal(b1-3)GlcNAc(b1-3)Gal(b1-4)GlcNAc(b1-2)Man(a1-3)[Gal(b1-3)GlcNAc(b1-3)Gal(b1-4)GlcNAc(b1-2)Man(a1-6)]Man(b1-4)GlcNAc(b1-4)GlcNAc
Summary of the method: as §1

[20] = target: Gal(b1-3)GlcNAc(b1-3)Gal(b1-4)GlcNAc(b1-2)[Gal(b1-3)GlcNAc(b1-3)Gal(b1-4)GlcNAc(b1-6)]Man(a1-6)[Gal(b1-3)GlcNAc(b1-3)Gal(b1-4)GlcNAc(b1-2)Man(a1-3)]Man(b1-4)GlcNAc(b1-4)[Fuc(a1-6)]GlcNAc
Summary of the method: as §1

[21] = target: Gal(b1-3)GlcNAc(b1-3)Gal(b1-4)GlcNAc(b1-3)Gal(b1-4)GlcNAc(b1-2)[Gal(b1-3)GlcNAc(b1-3)Gal(b1-4)GlcNAc(b1-3)Gal(b1-4)GlcNAc(b1-6)]Man(a1-6)[Gal(b1-3)GlcNAc(b1-3)Gal(b1-4)GlcNAc(b1-3)Gal(b1-4)GlcNAc(b1-2)Man(a1-3)]Man(b1-4)GlcNAc(b1-4)[Fuc(a1-6)]GlcNAc
Summary of the method: as §1

[22] = target: Gal(b1-3)GlcNAc(b1-3)Gal(b1-4)GlcNAc(b1-6)[Gal(b1-3)GlcNAc(b1-3)]Gal(b1-4)Glc
Summary of the method: as §1

[23] = target: Gal(b1-3)GlcNAc(b1-3)Gal(b1-4)[Fuc(a1-3)]GlcNAc
Summary of the method: as §1

[24] = target: Gal(b1-3)GlcNAc(b1-3)Gal(b1-4)[Fuc(a1-3)]GlcNAc(b1-6)[Gal(b1-3)GlcNAc(b1-3)]Gal(b1-4)Glc
Summary of the method: as §1

[25] = target: Gal(b1-3)GlcNAc(b1-3)GalNAc
Summary of the method: as §1

[26] = target: Gal(b1-3)GlcNAc(b1-6)Gal(b1-4)GlcNAc
Summary of the method: as §1

[27] = target: Gal(b1-3)GlcNAc(b1-6)GalNAc
Summary of the method: as §1

B1: Aap brpt (Staphylococcus epidermidis) (protein)
chain: VDGDPITSTEEIPFDKKREFDPNLAPGTEKVVQKGEPGTKTITTPTTKNPLTGEKVGEGEPTEKITKQPVDEIVHYGGEEIKTGHKDEFDPNAPKGSQTTQPGKPGVKNPDTGEVVTPPVDDVTKYGPVDGDPITSTEEIPFDKKREFDPNLAPGTEKVVQKGEPGTKTITTPTTKNPLTGEKVGEGEPTEKITKQPVDEIVHYGGEEIKPGHKDEFDPNAPKGSQEDVPGKPGVKNPDTGEVVTPPVDDVTKYGPVDGDSITSTEEIPFDKKREFDPNLAPGTEKVVQKGEPGTKTITTPTTKNPLTGEKVGEGEPTEKITKQPVDEIVHYGGEQIPQGHKDEFDPNAPVDSKTEVPGKPGVKNPDTGEVVTPPVDDVTKYGPVDGDSITSTEEIPFDKKREFDPNLAPGTEKVVQKGEPGTKTITTPTTKNPLTGEKVGEGKSTEKVTKQPVDEIVEYGPTK
With B1 as the binder, how does the “glycan array binding signal (z-score)” value [1] read?
Its value is 0.93.

And the “glycan array binding signal (z-score)” value [2]?
The value was -0.999.

What about the “glycan array binding signal (z-score)” value (Gal(a1-4)Gal(b1-4)Glc) of the same binder?
Its value is 2.

What about the “glycan array binding signal (z-score)” value (Gal(a1-4)Gal(b1-4)GlcNAc) of the same binder?
The value was 0.088.

What about the “glycan array binding signal (z-score)” value [3] of the same binder?
Its value is 1.48.

What about the “glycan array binding signal (z-score)” value [4] of the same binder?
Its value is 1.87.

What about the “glycan array binding signal (z-score)” value (Gal(a1-4)GlcNAc) of the same binder?
The value was -1.41.

And the “glycan array binding signal (z-score)” value (Gal(a1-6)Glc)?
Its value is 1.01.

And the “glycan array binding signal (z-score)” value (Gal(b1-2)Gal)?
Its value is -0.255.

What about the “glycan array binding signal (z-score)” value (Gal(b1-3)Gal) of the same binder?
Its value is 0.907.

And the “glycan array binding signal (z-score)” value (Gal(b1-3)Gal(b1-4)GlcNAc)?
The value was -0.085.

What about the “glycan array binding signal (z-score)” value (Gal(b1-3)GalNAc) of the same binder?
Its value is -0.003.

And the “glycan array binding signal (z-score)” value [5]?
Its value is -0.33.

What about the “glycan array binding signal (z-score)” value [6] of the same binder?
The value was -1.46.

What about the “glycan array binding signal (z-score)” value (Gal(b1-3)GalNAc(b1-3)Gal) of the same binder?
The value was -0.934.

What about the “glycan array binding signal (z-score)” value [7] of the same binder?
The value was -0.558.

What about the “glycan array binding signal (z-score)” value [8] of the same binder?
Its value is -0.993.

And the “glycan array binding signal (z-score)” value [9]?
The value was -1.29.

And the “glycan array binding signal (z-score)” value (Gal(b1-3)GlcNAc)?
The value was -0.042.

And the “glycan array binding signal (z-score)” value [10]?
The value was -0.076.

And the “glycan array binding signal (z-score)” value [11]?
Its value is 0.632.

What about the “glycan array binding signal (z-score)” value (Gal(b1-3)GlcNAc(b1-2)Man) of the same binder?
The value was 0.168.

And the “glycan array binding signal (z-score)” value [12]?
The value was 1.51.

What about the “glycan array binding signal (z-score)” value [13] of the same binder?
Its value is 0.208.

What about the “glycan array binding signal (z-score)” value [14] of the same binder?
Its value is 0.399.

And the “glycan array binding signal (z-score)” value [15]?
The value was 1.27.

And the “glycan array binding signal (z-score)” value [16]?
The value was -0.56.

And the “glycan array binding signal (z-score)” value [17]?
Its value is 0.371.

And the “glycan array binding signal (z-score)” value [18]?
The value was -0.346.

What about the “glycan array binding signal (z-score)” value [19] of the same binder?
Its value is -0.969.

What about the “glycan array binding signal (z-score)” value [20] of the same binder?
Its value is 1.85.

And the “glycan array binding signal (z-score)” value [21]?
The value was -0.027.

What about the “glycan array binding signal (z-score)” value [22] of the same binder?
The value was 0.374.

What about the “glycan array binding signal (z-score)” value [23] of the same binder?
The value was 0.154.

What about the “glycan array binding signal (z-score)” value [24] of the same binder?
Its value is 0.461.

And the “glycan array binding signal (z-score)” value [25]?
Its value is -1.15.

And the “glycan array binding signal (z-score)” value [26]?
The value was 0.584.

What about the “glycan array binding signal (z-score)” value [27] of the same binder?
Its value is 1.73.
